Test results as given in paper PMC3542071.
Results are given in words; binding and its absence hold for the method and conditions named. For part of these data: In cells and extracts the contact can be indirect. Some entries that bind do so weakly or less than the wild type. Sequences can lack the tags named with a protein.

How the values were obtained:
[1] = target: T1, Ecm11 fused to the Gal4 DNA-binding domain (DBD) (budding yeast) (UniProt Q04110); assay: two-hybrid; Gal4 DBD fusion (TRP1 plasmid) and Gal4 AD fusion (LEU2 plasmid) in yeast; growth on medium lacking adenine (GAL4-ADE2 reporter)
T1 sequence: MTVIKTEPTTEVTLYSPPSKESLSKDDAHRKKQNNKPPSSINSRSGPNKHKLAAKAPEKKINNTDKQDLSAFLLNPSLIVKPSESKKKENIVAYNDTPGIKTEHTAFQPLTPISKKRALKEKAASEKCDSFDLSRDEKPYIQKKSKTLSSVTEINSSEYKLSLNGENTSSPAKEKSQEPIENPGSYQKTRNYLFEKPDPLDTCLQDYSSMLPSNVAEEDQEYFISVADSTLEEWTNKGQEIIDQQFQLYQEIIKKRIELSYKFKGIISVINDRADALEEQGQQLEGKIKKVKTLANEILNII

[2] = target: T2, Ecm11-FLAG (budding yeast) (UniProt Q04110); assay: co-IP; native whole cell extracts of meiotic cells; lysis buffer 200 mM NaCl, 10 mM EDTA, 0.05% Igepal CA-630, 50 mM Tris-HCl pH 8.0; anti-FLAG or anti-myc antibody, protein G Dynabeads, Western blotting; in parallel immunoprecipitates treated with Benzonase (co-precipitation resistant to nuclease)
T2 sequence: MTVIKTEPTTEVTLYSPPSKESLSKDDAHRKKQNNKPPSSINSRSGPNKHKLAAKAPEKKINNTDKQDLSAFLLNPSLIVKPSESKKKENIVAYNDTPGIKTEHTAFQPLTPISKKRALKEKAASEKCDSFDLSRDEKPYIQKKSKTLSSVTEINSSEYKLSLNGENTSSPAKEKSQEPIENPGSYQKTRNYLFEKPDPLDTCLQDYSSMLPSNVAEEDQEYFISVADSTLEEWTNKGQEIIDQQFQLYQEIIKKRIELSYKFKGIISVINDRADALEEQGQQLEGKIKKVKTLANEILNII

myc-Gmc2 (budding yeast) = target: T3, myc-Gmc2 (budding yeast) (UniProt Q06201); assay: as above
T3 sequence: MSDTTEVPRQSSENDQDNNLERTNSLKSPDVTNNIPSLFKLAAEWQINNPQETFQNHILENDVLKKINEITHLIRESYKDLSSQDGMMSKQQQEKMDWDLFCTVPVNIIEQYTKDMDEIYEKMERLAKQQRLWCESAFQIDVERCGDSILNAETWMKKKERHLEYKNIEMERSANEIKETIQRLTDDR

B1: Gmc2 fused to the Gal4 transcription activation domain (AD) (protein, UniProt Q06201 1-188)
chain: MSDTTEVPRQSSENDQDNNLERTNSLKSPDVTNNIPSLFKLAAEWQINNPQETFQNHILENDVLKKINEITHLIRESYKDLSSQDGMMSKQQQEKMDWDLFCTVPVNIIEQYTKDMDEIYEKMERLAKQQRLWCESAFQIDVERCGDSILNAETWMKKKERHLEYKNIEMERSANEIKETIQRLTDDR
For B1, the binding [1] was “binds”.

B2: myc-Gmc2 (protein, UniProt Q06201 1-188)
chain: MSDTTEVPRQSSENDQDNNLERTNSLKSPDVTNNIPSLFKLAAEWQINNPQETFQNHILENDVLKKINEITHLIRESYKDLSSQDGMMSKQQQEKMDWDLFCTVPVNIIEQYTKDMDEIYEKMERLAKQQRLWCESAFQIDVERCGDSILNAETWMKKKERHLEYKNIEMERSANEIKETIQRLTDDR
In the case of B2, the binding [2] is reported as “binds”.

B3: Ecm11-FLAG (protein, UniProt Q04110 1-302)
chain: MTVIKTEPTTEVTLYSPPSKESLSKDDAHRKKQNNKPPSSINSRSGPNKHKLAAKAPEKKINNTDKQDLSAFLLNPSLIVKPSESKKKENIVAYNDTPGIKTEHTAFQPLTPISKKRALKEKAASEKCDSFDLSRDEKPYIQKKSKTLSSVTEINSSEYKLSLNGENTSSPAKEKSQEPIENPGSYQKTRNYLFEKPDPLDTCLQDYSSMLPSNVAEEDQEYFISVADSTLEEWTNKGQEIIDQQFQLYQEIIKKRIELSYKFKGIISVINDRADALEEQGQQLEGKIKKVKTLANEILNII
With B3 the binding (myc-Gmc2 (budding yeast)) was “binds”.
